The other results are listed elsewhere or left out. Most values lie at the level of the controls, where differences are scatter.

The chains behind the UniProt entries cited, without tags or fusion partners. Where a name states a change or a piece, a line headed by the entry shows the natural chain unless it says otherwise.
UniProt Q8CHP8: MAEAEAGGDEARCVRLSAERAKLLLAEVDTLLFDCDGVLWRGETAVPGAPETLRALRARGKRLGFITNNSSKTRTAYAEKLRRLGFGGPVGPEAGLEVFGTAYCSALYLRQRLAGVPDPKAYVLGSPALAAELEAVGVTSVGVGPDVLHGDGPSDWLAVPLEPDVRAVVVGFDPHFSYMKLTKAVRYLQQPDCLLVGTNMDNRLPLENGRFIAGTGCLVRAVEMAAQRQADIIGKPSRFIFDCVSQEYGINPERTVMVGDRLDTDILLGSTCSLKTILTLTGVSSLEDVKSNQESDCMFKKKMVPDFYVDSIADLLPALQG
UniProt Q8R0F9: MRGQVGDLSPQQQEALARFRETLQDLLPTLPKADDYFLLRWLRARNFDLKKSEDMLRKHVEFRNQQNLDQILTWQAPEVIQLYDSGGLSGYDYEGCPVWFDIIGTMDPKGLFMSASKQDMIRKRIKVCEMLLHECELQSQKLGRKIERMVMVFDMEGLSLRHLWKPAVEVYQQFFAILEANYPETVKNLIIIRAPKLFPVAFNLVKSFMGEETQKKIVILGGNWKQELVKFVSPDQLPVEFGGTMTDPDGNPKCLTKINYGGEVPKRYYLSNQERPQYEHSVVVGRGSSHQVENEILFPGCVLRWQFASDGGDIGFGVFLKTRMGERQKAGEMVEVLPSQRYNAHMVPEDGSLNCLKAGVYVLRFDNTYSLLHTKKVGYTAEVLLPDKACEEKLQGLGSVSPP
UniProt Q8JZQ5: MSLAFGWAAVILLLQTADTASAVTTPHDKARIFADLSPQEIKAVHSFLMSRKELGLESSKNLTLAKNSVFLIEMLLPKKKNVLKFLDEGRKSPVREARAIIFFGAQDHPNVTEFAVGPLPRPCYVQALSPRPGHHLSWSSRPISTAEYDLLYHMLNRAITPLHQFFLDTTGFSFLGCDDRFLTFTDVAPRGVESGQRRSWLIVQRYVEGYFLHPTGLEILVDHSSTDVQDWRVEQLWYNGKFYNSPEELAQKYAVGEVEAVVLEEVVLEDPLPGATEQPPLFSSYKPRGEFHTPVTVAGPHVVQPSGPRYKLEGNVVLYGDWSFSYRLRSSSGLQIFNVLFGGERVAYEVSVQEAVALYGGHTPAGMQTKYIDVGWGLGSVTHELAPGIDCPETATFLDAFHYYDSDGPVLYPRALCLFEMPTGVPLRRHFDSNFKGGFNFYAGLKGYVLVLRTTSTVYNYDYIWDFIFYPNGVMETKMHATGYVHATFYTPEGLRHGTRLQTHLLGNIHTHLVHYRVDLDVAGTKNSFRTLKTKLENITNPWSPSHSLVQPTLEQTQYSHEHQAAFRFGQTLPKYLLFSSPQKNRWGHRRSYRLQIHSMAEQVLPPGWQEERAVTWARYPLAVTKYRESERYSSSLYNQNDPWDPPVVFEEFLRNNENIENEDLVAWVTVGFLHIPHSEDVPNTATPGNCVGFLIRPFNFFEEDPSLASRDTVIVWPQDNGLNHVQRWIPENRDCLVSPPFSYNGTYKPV
UniProt Q8QZY1, whole entry: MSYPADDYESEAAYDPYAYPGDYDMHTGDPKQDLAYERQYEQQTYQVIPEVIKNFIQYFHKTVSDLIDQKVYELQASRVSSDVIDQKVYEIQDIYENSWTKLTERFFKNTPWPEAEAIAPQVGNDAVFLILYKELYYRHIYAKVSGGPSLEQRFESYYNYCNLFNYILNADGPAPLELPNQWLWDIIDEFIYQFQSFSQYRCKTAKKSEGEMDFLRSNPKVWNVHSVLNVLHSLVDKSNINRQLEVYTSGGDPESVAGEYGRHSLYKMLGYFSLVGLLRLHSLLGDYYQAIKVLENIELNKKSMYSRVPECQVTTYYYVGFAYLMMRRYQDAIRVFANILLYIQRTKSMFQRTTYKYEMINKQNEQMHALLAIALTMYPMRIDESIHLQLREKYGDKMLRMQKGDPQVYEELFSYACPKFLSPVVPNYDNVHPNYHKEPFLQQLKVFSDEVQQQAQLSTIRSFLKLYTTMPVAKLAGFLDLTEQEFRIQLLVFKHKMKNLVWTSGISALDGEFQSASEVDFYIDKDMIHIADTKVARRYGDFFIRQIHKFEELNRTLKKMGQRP
UniProt Q8K1E0: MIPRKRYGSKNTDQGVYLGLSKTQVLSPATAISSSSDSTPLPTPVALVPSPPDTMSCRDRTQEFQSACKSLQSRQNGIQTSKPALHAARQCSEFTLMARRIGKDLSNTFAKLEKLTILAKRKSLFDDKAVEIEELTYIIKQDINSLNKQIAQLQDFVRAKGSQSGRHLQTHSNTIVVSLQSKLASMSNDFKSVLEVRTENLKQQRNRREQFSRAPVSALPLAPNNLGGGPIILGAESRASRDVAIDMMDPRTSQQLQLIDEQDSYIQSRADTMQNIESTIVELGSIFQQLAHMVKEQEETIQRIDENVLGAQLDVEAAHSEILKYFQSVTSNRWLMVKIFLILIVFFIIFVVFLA
UniProt Q8QZR5: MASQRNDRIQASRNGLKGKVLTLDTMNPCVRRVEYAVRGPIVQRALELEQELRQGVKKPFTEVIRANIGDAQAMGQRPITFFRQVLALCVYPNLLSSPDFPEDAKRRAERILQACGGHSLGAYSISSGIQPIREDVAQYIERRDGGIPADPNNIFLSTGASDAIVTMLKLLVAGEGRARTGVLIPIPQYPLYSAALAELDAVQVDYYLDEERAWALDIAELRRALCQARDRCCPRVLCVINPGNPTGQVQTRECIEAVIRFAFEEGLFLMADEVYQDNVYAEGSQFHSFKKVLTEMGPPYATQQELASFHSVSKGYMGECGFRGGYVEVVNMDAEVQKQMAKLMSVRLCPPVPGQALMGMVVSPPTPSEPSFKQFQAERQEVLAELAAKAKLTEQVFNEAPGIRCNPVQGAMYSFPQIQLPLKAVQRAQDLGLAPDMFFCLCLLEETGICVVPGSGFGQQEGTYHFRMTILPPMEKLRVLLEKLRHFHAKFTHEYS
UniProt Q8VC74: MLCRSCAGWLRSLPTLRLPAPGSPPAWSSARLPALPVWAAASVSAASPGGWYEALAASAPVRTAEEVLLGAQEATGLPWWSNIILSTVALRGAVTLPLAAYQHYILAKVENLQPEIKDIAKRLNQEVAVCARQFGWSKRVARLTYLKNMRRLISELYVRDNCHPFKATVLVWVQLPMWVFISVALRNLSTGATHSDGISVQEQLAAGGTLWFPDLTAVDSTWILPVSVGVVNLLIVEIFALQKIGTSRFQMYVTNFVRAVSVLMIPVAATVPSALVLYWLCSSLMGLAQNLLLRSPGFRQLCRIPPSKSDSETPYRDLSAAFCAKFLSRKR
UniProt Q8K3K8, whole entry: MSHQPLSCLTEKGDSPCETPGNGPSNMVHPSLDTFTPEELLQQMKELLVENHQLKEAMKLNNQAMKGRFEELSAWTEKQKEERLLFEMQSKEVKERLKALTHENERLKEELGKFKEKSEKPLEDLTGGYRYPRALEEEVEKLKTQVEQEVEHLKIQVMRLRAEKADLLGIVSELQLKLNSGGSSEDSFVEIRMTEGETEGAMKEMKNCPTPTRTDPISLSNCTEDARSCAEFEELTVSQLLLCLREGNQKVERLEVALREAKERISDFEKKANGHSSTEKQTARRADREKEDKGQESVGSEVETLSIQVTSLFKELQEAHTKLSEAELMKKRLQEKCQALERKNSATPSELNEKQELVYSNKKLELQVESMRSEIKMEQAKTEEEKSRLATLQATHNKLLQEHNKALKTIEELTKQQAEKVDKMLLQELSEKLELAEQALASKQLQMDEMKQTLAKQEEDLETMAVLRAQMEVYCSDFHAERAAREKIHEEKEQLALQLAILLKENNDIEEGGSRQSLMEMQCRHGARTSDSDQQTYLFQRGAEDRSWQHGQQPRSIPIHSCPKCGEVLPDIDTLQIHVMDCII
UniProt Q8K4G1: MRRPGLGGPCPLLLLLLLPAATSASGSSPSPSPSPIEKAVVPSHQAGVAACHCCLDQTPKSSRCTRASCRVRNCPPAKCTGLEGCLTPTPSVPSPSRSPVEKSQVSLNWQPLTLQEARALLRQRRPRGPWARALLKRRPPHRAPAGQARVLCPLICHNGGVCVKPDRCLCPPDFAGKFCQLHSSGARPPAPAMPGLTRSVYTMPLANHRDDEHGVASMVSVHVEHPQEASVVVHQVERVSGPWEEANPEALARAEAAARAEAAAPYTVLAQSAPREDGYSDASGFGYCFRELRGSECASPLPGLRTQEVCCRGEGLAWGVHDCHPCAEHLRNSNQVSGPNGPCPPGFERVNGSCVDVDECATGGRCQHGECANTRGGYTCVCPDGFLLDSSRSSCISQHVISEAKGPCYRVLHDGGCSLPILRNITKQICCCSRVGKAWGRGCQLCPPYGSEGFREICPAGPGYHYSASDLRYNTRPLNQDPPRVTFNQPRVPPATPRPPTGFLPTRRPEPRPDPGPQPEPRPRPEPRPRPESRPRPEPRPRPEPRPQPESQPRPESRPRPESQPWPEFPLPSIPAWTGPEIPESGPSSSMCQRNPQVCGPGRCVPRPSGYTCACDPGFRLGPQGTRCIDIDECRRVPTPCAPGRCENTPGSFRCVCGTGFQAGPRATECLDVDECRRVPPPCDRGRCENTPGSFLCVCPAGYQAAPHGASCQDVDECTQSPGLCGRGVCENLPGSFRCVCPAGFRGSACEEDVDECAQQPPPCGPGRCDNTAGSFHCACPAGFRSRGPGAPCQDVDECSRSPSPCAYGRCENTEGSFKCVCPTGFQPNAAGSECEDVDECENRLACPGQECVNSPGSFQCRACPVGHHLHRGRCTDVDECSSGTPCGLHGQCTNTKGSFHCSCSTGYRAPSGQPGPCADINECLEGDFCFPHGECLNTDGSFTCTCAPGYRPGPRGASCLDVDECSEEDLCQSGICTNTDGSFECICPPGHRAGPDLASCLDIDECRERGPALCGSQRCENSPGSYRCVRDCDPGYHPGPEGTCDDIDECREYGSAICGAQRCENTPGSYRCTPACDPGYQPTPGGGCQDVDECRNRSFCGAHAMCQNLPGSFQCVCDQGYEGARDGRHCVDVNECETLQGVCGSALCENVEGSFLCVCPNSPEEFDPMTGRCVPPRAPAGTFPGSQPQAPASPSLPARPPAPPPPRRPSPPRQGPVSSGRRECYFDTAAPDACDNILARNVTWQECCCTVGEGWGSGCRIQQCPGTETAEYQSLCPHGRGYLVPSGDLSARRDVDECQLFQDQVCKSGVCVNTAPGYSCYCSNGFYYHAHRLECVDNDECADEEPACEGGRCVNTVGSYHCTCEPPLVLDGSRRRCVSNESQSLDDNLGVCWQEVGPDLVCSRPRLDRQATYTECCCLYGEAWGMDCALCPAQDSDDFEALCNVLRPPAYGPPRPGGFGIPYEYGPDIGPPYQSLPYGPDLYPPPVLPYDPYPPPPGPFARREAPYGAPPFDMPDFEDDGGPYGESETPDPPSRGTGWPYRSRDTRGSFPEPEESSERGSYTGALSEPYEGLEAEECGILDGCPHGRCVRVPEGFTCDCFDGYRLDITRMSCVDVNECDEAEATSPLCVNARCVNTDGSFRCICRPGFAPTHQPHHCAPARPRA
UniProt Q8CH25: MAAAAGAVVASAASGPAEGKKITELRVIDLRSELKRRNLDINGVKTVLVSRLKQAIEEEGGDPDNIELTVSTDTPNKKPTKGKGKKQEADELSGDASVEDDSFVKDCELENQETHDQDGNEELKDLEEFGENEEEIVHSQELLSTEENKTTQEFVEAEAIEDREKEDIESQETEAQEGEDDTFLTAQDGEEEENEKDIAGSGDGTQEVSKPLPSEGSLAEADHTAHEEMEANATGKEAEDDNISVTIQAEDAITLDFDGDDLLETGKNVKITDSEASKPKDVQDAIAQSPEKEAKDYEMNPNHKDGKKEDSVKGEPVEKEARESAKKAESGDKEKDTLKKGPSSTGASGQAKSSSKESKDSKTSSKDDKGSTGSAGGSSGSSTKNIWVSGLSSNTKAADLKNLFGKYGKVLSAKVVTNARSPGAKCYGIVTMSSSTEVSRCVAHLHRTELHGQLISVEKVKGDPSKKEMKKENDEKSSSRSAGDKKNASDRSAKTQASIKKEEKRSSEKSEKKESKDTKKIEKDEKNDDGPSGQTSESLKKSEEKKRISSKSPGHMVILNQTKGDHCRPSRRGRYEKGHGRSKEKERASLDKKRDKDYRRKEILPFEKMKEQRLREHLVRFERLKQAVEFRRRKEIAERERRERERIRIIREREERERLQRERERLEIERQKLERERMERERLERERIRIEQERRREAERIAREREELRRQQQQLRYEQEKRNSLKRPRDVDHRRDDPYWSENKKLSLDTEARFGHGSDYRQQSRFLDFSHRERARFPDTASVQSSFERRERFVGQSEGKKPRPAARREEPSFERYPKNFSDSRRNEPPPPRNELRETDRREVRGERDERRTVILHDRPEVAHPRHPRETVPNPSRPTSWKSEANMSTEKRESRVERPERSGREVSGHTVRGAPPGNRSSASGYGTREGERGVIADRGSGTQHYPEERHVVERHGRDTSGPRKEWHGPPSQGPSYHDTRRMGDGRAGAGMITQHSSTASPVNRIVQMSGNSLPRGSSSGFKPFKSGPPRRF

Compound in the experiment: CN[C@@H]1C[C@H]2O[C@@](C)([C@@H]1OC)n1c3ccccc3c3c4c(c5c6ccccc6n2c5c31)C(=O)NC4 [staurosporine]
Put plainly: log2 fold change of pooled soluble protein (PISA), ligand vs vehicle (log2 ratio); higher = more thermally stabilized. To be noted: ligand concentration: 20 uM; assay format: PISA pool 52.9/55.5/58.6 C.
Consider UniProt Q8JZU2, for which the “log2 fold change of pooled soluble protein” value (“log2 fold change” below) is -0.211.
In the case of UniProt Q8R0V5 it was 0.286; in that of UniProt Q8CHP8, -0.059; in that of UniProt Q8VCM5, -0.0414.
Then UniProt Q8VC12, with -0.0767; and UniProt Q8K1C0, with 0.0529; and UniProt Q8R0F9, with 0.0497.
Turning to UniProt Q8K2F0, the “log2 fold change” value was -0.0186.
Consider UniProt Q8R5H6, for which the “log2 fold change” value is -0.0553.
As for UniProt Q8JZQ5, the “log2 fold change” value was -0.214.
Take UniProt Q8K1X1: the “log2 fold change” value was -0.0244.
In the case of UniProt Q8JZN5, the “log2 fold change” value is -0.0565.
Regarding UniProt Q8K3A9, the “log2 fold change” value was determined as 0.0816.
Turning to UniProt Q8QZY1, the “log2 fold change” value was -0.108.
In the case of UniProt Q8JZY2, the “log2 fold change” value was -0.123.
Consider UniProt Q8VBZ3, for which the “log2 fold change” value turned out to be 0.00101.
Regarding UniProt Q8K0G8, the “log2 fold change” value was -0.201.
Then UniProt Q8K2V1, with 0.1; and UniProt Q8R2E9, with -0.0578.
As for UniProt Q8K297, the “log2 fold change” value is 0.147.
As for UniProt Q8K1E0, the “log2 fold change” value was -0.163.
In the case of UniProt Q8R086 it was 0.0734; in that of UniProt Q8QZR5, -0.0601.
On to UniProt Q8R016, for which the “log2 fold change” value is -0.0256.
For the target UniProt Q8VC74, the “log2 fold change” value amounted to 0.0743.
Turning to UniProt Q8K3K8, the “log2 fold change” value was found to be 0.00148.
As for UniProt Q8R0Y8, the “log2 fold change” value was found to be 0.0659.
In the case of UniProt Q8R1Z9 it was 0.16; in that of UniProt Q8K1R3, -0.0289; in that of UniProt Q8VCI5, 0.16.
On to UniProt Q8K4G1, for which the “log2 fold change” value is -0.0831.
As for UniProt Q8CH25, the “log2 fold change” value is -0.0306.
UniProt Q8VC60: the “log2 fold change” value is -0.211.
For UniProt Q8R0N6, the “log2 fold change” value is -0.0654.
Turning to UniProt Q8K2H1, the “log2 fold change” value turned out to be 0.208.
For UniProt Q8K212, the “log2 fold change” value is 0.0153.
Turning to UniProt Q8VC97, the “log2 fold change” value turned out to be 0.193.

The values are drawn from the supplement of paper PMC12819154, “High-throughput peptide-centric local stability assay extends protein–ligand identification to membrane proteins, tissues and bacteria” (Nature Structural & Molecular Biology, 2025).
